Experimental findings from patent publication US11344534B2, “Cholinergic agonism for the treatment of pancreatic cancer” (priority 2017, dated 2022) are described below.

For this assay, the system named is Organoid cultures derived from LSL-K-Ras^G12D pancreata not treated by an Adeno-Cre virus. It is filed as cell-based. Particulars: no Adeno-Cre virus (Kras not activated).

With `CN1[C@@H]2C[C@@H](OC(=O)[C@H](CO)c3ccccc3)C[C@H]1[C@@H]1O[C@@H]12` [scopolamine], the “sphere forming capacity / growth of WT spheres” value was “significantly prevents”.
